These are yes or no findings as the source states them, for the method shown. Some entries that bind do so weakly or less than the wild type.
Target: adrenomedullin receptors in the lungs of dogs (dog)
Experiment: competition: displacement of iodine-labelled hAM from dog lungs; rank order

Row | Binder | binding
1 | SFGCRFGTCTVQKLAHQIYQFTDKDKDNVAPRSKISPQGY (C-terminal amide (Tyr-CONH2)) [hAM(13-52)] | binds
2 | TVQKLAHQIYQFTDKDKDNVAPRSKISPQGY (C-terminal amide (Tyr-CONH2)) [hAM(22-52)] | binds
